This note sets out measurements from PMC5703968.

Sequences of proteins named here, by UniProt entry; tags and fusion partners are left off.
UniProt Q4QRB4: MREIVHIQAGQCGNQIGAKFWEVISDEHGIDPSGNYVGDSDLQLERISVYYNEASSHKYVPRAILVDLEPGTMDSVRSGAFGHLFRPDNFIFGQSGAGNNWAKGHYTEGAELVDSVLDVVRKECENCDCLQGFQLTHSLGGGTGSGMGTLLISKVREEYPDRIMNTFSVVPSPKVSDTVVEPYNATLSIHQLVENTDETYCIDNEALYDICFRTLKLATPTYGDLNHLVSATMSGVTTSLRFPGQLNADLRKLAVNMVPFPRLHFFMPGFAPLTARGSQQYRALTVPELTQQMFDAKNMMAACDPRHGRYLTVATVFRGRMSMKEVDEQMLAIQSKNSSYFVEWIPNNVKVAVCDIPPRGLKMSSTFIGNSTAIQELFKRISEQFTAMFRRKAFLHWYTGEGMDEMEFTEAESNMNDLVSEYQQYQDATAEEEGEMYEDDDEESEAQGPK
UniProt Q63544: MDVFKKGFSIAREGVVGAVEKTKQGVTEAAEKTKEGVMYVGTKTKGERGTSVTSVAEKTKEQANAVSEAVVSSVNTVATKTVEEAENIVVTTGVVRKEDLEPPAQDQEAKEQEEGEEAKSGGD

No constants are given. Whether binding was seen depends on the method and setting. In cells and extracts the contact can be indirect. Here binding means that the protein was enriched with, or labelled near, the bait; the list need not be complete.

The assay addresses βIII-tubulin (endogenous, rat femoral nerve) (rat (endogenous in femoral nerve)) (UniProt Q4QRB4). The experiment in a line: affinity purification with mass spectrometry; biotinylated anti-βIII-tubulin antibody on streptavidin agarose; lysate of ligated rat femoral nerve (0.5 mg protein), BRB80, 2 h at 4 °C; eluate analysed by LC-MS/MS.

On to “γ-synuclein (endogenous, rat femoral nerve) (from UniProt Q63544 1-123)”, for which the binding result is recorded as “binds”.
